From PubChem BioAssay AID540256 (National Center for Advancing Translational Sciences (NCATS), 2011)
Hit rate of the full screen: of about 300,000 compounds, about 3,700 (1.2%) were called active. Inconclusive means that the source gave no clear call. Such entries were picked first, then a sample of the others. The call rests on the fitted dose curve; tested in HEK293 cells. A potency beside an inconclusive call is a rough fit, not a confirmed value.

assay: qHTS for Inhibitors of binding or entry into cells for Lassa Virus; details: Lassa virus pseudotype entry inhibition, cell reporter; activity change, negative = inhibition: at 37.9 µM (top of the series) unless noted; further: nearly all actives have a fitted effect of over 50% in size
On the % scale 0 is the no-effect control and ±100 the full control effect; potency means the concentration at half of the fitted maximal effect.

| Compound | Potency | activity change, negative = inhibition |
| --- | --- | --- |
| COc1ccc(/C=C/c2cc(C(=O)O)c3ccccc3n2)cc1 | inconclusive: 1.12 µM [inhibitor, full curve, poor fit] | – |
| CCOC(=O)C(c1ccccc1)C(Nc1cc(C(F)(F)F)cc(C(F)(F)F)c1)c1ccccn1 (stereo not drawn) | – | inactive: -0.0952% |
| CCOc1ccc(NC(=O)[C@H]2O[C@@H]3OC(C)(C)O[C@@H]3[C@H]3OC(C)(C)O[C@H]32)cc1 | – | inactive: 14.3% [at 46.1 µM] |
| NC(=O)C(c1ccccc1)c1ccc(C(=O)c2ccccc2)cc1 (stereo not drawn) | inconclusive: 35.5 µM [inhibitor, single point] | – |
| CCOc1ccccc1N1CCN(C(=O)CC(C)(C)C)CC1 | – | inactive: 1.69% [at 46.1 µM] |
| COc1cccc(C2=C(C(C)=O)Sc3nnc(C4CCCCC4)n3N2C(C)=O)c1 | inconclusive: 14.1 µM [inhibitor, partial curve, poor fit] | – |
| COc1cccc(CNC(=O)CSc2n[nH]c(-c3ccccc3Cl)n2)c1OC | – | inactive: -0.417% [at 46.1 µM] |
| COC(=O)c1ccc(CNC(=O)CSc2nc3ccccc3[nH]2)cc1 | – | inactive: -1.03% |
| CC/C(=N\Nc1ccnc2cc(Cl)ccc12)c1ccc(O)cc1 | inconclusive: 35.5 µM [inhibitor, single point] | – |
| O=C(Nc1ccccc1)N(Cc1ccccc1)CC(O)C(F)(F)F (stereo not drawn) | inconclusive: 35.5 µM [inhibitor, single point] | – |
| O=C(Nc1ccc(-c2cn3c(n2)SCC3)cc1)c1ccco1 | inconclusive: 1.26 µM [inhibitor, single point] | – |
| Cc1ccc(OCCNS(=O)(=O)c2ccc(N3CCCC3=O)cc2)cc1C | inconclusive: 32.6 µM [inhibitor, single point] | – |
| Cc1cc(C(=O)Cn2nnc(-c3ccc(Cl)cc3)n2)c(C)n1CC1CCCO1 (stereo not drawn) | inconclusive: 25.9 µM [inhibitor, single point] | – |
| CCOc1ccccc1CNC(=O)c1cn(-c2ccc(OC)cc2)c(=O)c2ccccc12 | inconclusive: 17.8 µM [activator, partial curve, poor fit] | – |
| CCN(CC)C(=O)Cn1cc(/C=C2\C(=O)NC(=O)N(c3ccccc3F)C2=O)c2ccccc21 | inconclusive: 15.8 µM [inhibitor, partial curve] | – |
| O=C(Oc1ccccc1-c1nnco1)c1ccccc1 | inconclusive: 3.55 µM [activator, full curve, poor fit] | – |
| Cc1ccc(-c2nc(S(=O)(=O)c3ccc(C)cc3)c(SCC(=O)Nc3ccc(F)cc3)o2)cc1 | inconclusive: 3.98 µM [inhibitor, partial curve, poor fit] | – |
| C/C(=N/NS(=O)(=O)c1ccc(C)cc1C)c1c[nH]c2ccccc12 | inconclusive: 7.08 µM [inhibitor, full curve, poor fit] | – |
| OCCN1CCN(CC(O)COC(c2ccc(F)cc2)c2ccc(F)cc2)CC1 (stereo not drawn) | inconclusive: 6.31 µM [activator, partial curve, poor fit] | – |
| Cc1cccc(N2CC(c3nc4ccccc4n3CCC3CCCCC3)CC2=O)c1 (stereo not drawn) | inconclusive: 5.01 µM [activator, full curve, poor fit] | – |
| CCOC(=O)C1CN(c2cc3c(cc2F)c(=O)c(C(=O)O)cn3CC)OC1C(=O)OCC (stereo not drawn) | – | inactive: -5.73% |
| COc1cccc2nc3c(C(=O)NCCN(C)C)cccc3cc12 | inconclusive: 2.24 µM [inhibitor, full curve, poor fit] | – |
| CCOC(=O)c1c(-c2ccc(OC)cc2)csc1NC(=O)CNCc1ccco1 | inconclusive: 10 µM [inhibitor, partial curve, poor fit] | – |

Arranged by number of heavy atoms (smallest number first): part of the list above.

| Compound | Potency | activity change, negative = inhibition |
| --- | --- | --- |
| NC(=O)C(c1ccccc1)c1ccc(C(=O)c2ccccc2)cc1 (stereo not drawn) | inconclusive: 35.5 µM [inhibitor, single point] | – |
| Cc1ccc(OCCNS(=O)(=O)c2ccc(N3CCCC3=O)cc2)cc1C | inconclusive: 32.6 µM [inhibitor, single point] | – |
| CCOc1ccc(NC(=O)[C@H]2O[C@@H]3OC(C)(C)O[C@@H]3[C@H]3OC(C)(C)O[C@H]32)cc1 | – | inactive: 14.3% [at 46.1 µM] |

Next part:

| Compound | Potency | activity change, negative = inhibition |
| --- | --- | --- |
| Cc1cc(C)cc(NC(=O)Cn2nnc(C(=O)NCc3ccccc3Cl)c2N)c1 | inconclusive: 35.5 µM [inhibitor, single point] | – |
| Cc1ccc2cc(CCNC(=O)c3cccs3)c(=O)[nH]c2c1 | inconclusive: 5.17 µM [activator, partial curve] | – |
| Cc1ccc(N2CCN(c3ccc(NC(=O)CCC(=O)O)cc3)CC2)cc1 | inconclusive: 18.4 µM [activator, partial curve, poor fit] | – |
| O=C(COc1ccc([N+](=O)[O-])cc1)NCc1ccccc1 | inconclusive: 3.66 µM [inhibitor, single point] | – |
| O=C(O)c1ccc(CN(Cc2ccccc2)S(=O)(=O)c2ccc(Cl)cc2)cc1 | inconclusive: 0.1 µM [inhibitor, full curve, poor fit] | – |
| CCOC(=O)C1CCCN(S(=O)(=O)c2cc(Br)cc3c2N(C(=O)C2CC2)CC3)C1 (stereo not drawn) | – | inactive: -0.903% |
| COC(=O)C1=CN(Cc2cccs2)C=C(C(=O)OC)C1c1ccc(OC)cc1OC | inconclusive: 3.55 µM [inhibitor, partial curve, poor fit] | – |
| O=C(NNCc1ccccc1)c1ccccc1 | – | inactive: -28.8% [at 46.1 µM] |
| N#C/C(=N\Nc1ccc(Cl)cc1)C(=O)c1ccsc1 | inconclusive: 11.2 µM [inhibitor, partial curve, poor fit] | – |
| COc1ccc(-c2nc3nc(C)cc(N4CCN(c5cccc(C(F)(F)F)c5)CC4)n3n2)cc1 | inconclusive: 8.91 µM [activator, partial curve, poor fit] | – |
| CCOC(=O)c1noc2ncnc(N3CCN(c4cccc(Cl)c4)CC3)c12 | – | inactive: -3.3% [at 46.1 µM] |
| S=C(NCc1ccco1)Nc1cc(-c2ccccc2)[nH]n1 | – | inactive: -8.02% [at 46.1 µM] |
| COc1cc(NC(=O)CCNS(=O)(=O)c2cc(Br)cnc2N)cc(OC)c1 | – | inactive: -5.71% [at 46.1 µM] |
| Nc1cc(=O)[nH]c(SCC(=O)NNC(=O)c2ccccc2)n1 | inconclusive: 6.31 µM [activator, single point] | – |
| COc1ccc(N/C=C/C(=O)c2sc(-c3ccccc3)nc2C)cc1 | inconclusive: 8.91 µM [inhibitor, partial curve] | – |
| O=Cc1ccc(-c2ccc([N+](=O)[O-])cc2Cl)o1 | – | inactive: 1.97% |
| O=C(Nc1cc(C(F)(F)F)ccc1N1CCCCC1)c1ccc(Br)o1 | – | inactive: -17% |
| COc1ccc(-c2cc(C(C)=O)c(C)n2CCC(=O)Nc2ccc(C)cc2Cl)cc1 | – | inactive: -1.22% [at 46.1 µM] |
| COc1cc(C2N=C(N)Nc3nc4ccccc4n32)ccc1OCC(=O)O (stereo not drawn) | – | inactive: 12.3% [at 46.1 µM] |
| O=C(C1CCN(S(=O)(=O)c2cccnc2)CC1)N1CCCCC1 | – | inactive: 16.9% |
| Cc1cc(C)cc(Nc2nc3ccccc3n3cnnc23)c1 | – | inactive: 25.7% [at 46.1 µM] |
| COc1ccc(C(=O)N(C)Cc2ccc(C)o2)cc1OC1CCN(C(C)C)CC1 | inconclusive: 5.01 µM [activator, partial curve, poor fit] | – |
| O=C(CSc1nnc(Cc2cccs2)n1Cc1ccco1)Nc1ccc(Br)cc1 | – | inactive: -0.567% |

Of the compounds above, 13 have four or more nitrogen atoms:

| Compound | Potency | activity change, negative = inhibition |
| --- | --- | --- |
| COc1cccc(C2=C(C(C)=O)Sc3nnc(C4CCCCC4)n3N2C(C)=O)c1 | inconclusive: 14.1 µM [inhibitor, partial curve, poor fit] | – |
| COc1cccc(CNC(=O)CSc2n[nH]c(-c3ccccc3Cl)n2)c1OC | – | inactive: -0.417% [at 46.1 µM] |
| Cc1cc(C(=O)Cn2nnc(-c3ccc(Cl)cc3)n2)c(C)n1CC1CCCO1 (stereo not drawn) | inconclusive: 25.9 µM [inhibitor, single point] | – |
| CCN(CC)C(=O)Cn1cc(/C=C2\C(=O)NC(=O)N(c3ccccc3F)C2=O)c2ccccc21 | inconclusive: 15.8 µM [inhibitor, partial curve] | – |
| Cc1cc(C)cc(NC(=O)Cn2nnc(C(=O)NCc3ccccc3Cl)c2N)c1 | inconclusive: 35.5 µM [inhibitor, single point] | – |
| COc1ccc(-c2nc3nc(C)cc(N4CCN(c5cccc(C(F)(F)F)c5)CC4)n3n2)cc1 | inconclusive: 8.91 µM [activator, partial curve, poor fit] | – |
| CCOC(=O)c1noc2ncnc(N3CCN(c4cccc(Cl)c4)CC3)c12 | – | inactive: -3.3% [at 46.1 µM] |
| S=C(NCc1ccco1)Nc1cc(-c2ccccc2)[nH]n1 | – | inactive: -8.02% [at 46.1 µM] |
| COc1cc(NC(=O)CCNS(=O)(=O)c2cc(Br)cnc2N)cc(OC)c1 | – | inactive: -5.71% [at 46.1 µM] |
| Nc1cc(=O)[nH]c(SCC(=O)NNC(=O)c2ccccc2)n1 | inconclusive: 6.31 µM [activator, single point] | – |
| COc1cc(C2N=C(N)Nc3nc4ccccc4n32)ccc1OCC(=O)O (stereo not drawn) | – | inactive: 12.3% [at 46.1 µM] |
| Cc1cc(C)cc(Nc2nc3ccccc3n3cnnc23)c1 | – | inactive: 25.7% [at 46.1 µM] |
| O=C(CSc1nnc(Cc2cccs2)n1Cc1ccco1)Nc1ccc(Br)cc1 | – | inactive: -0.567% |

Continuation:

| Compound | Potency | activity change, negative = inhibition |
| --- | --- | --- |
| CCn1nc(-c2cccs2)nc2c(=O)n(C)c(=O)nc1-2 | inconclusive: 1.12 µM [inhibitor, partial curve, poor fit] | – |
| CC1CCCCC1NC(=O)c1cccc(N2C(=O)C3C4C=CC(C4)C3C2=O)c1 (stereo not drawn) | inconclusive: 31.6 µM [inhibitor, single point] | – |
| O=S(=O)(c1ccc2[nH]c3c(c2c1)CCCC3)N1CCN(c2cccc(C(F)(F)F)c2)CC1 | inconclusive: 10 µM [inhibitor, partial curve, poor fit] | – |
| O=C(Nc1ccc2c(c1)CCC2)c1cccc(F)c1 | inconclusive: 6.51 µM [activator, single point] | – |
| Cc1nc2ccc(S(=O)(=O)NC(C(=O)N3CCN(c4ccc(Cl)cc4)CC3)C(C)C)cc2s1 (stereo not drawn) | inconclusive: 35.5 µM [inhibitor, single point] | – |
| C=CCC1(CC=C)CCCN1Cc1nc(COc2ccccc2)no1 | inconclusive: 7.08 µM [activator, partial curve, poor fit] | – |
| CCCCCSc1nnc2c(n1)OC(CC)Nc1ccc(Br)cc1-2 (stereo not drawn) | – | inactive: 29.4% [at 46.1 µM] |
| Cc1c(Cl)c(C(=O)NNC(=S)Nc2ccc(F)cc2)nn1C | inconclusive: 35.5 µM [activator, single point] | – |
| COc1ccc(CNC(=O)Cn2nc([N+](=O)[O-])c(Br)c2C)cc1OC | inconclusive: 11.2 µM [inhibitor, partial curve, poor fit] | – |
| O=S(=O)(CCc1nc2ccccc2o1)c1ccc2ccccc2c1 | – | inactive: -0.34% |
| COC(=O)c1cccc(N(C(=O)c2cnccn2)C(C(=O)NC2CCCCC2)c2cn(C)nc2C)c1 (stereo not drawn) | inconclusive: 6.51 µM [inhibitor, single point] | – |
| C=CCN1C(=O)c2cccc3c(Br)ccc(c23)C1=O | – | inactive: -19.3% [at 46.1 µM] |
| O=C(NN=Cc1ccc([N+](=O)[O-])cc1)c1ccncc1 | inconclusive: 22.4 µM [activator, partial curve, poor fit] | – |
| Cc1occc1-c1nc(-c2ccncc2)no1 | – | inactive: 39.1% [at 14.3 µM] |
| Cc1c(NC(=O)c2cc(-n3cnnc3)ccc2Cl)cccc1-c1nc2ccccc2o1 | – | inactive: -19.3% |
| CC(C)CNS(=O)(=O)c1ccc(CCC(=O)N2CCN(c3ccccc3)CC2)cc1 | inconclusive: 15.8 µM [inhibitor, partial curve, poor fit] | – |
| O=C(Nc1ccc2c(c1)OCCO2)c1cccc(S(=O)(=O)N2CCCCC2)c1 | – | inactive: -37.2% [at 14.3 µM] |
| CCOC(=O)N1CCC2(CC1)C(C#N)=C(N)Oc1c2sc2nc(C)cc(C)c12 | inconclusive: 25.9 µM [inhibitor, partial curve, poor fit] | – |
| Cc1nc(Cc2nnc(SC(C)C(=O)Nc3cccc(C#N)c3)o2)cs1 (stereo not drawn) | – | inactive: 19.3% |
| CCCCNC(=O)OCCNC(=O)NC | inconclusive: 4.61 µM [activator, full curve, poor fit] | – |
| CC(C)c1ccc(Nc2ncnc3c2nc2n3CCCC2)cc1 | inconclusive: 15.8 µM [inhibitor, single point] | – |
| O=C(c1ccc(Cl)cc1)c1ccc(CN2C(=O)c3ccccc3C2=O)o1 | inconclusive: 0.231 µM [inhibitor, single point] | – |
